Data as given in paper doi:10.1101/2024.09.05.611419.
These are yes or no findings as the source states them, for the method shown. Binding seen in cells or lysates may run through a third protein. Here binding means that the protein was enriched with, or labelled near, the bait; the list need not be complete. For some assays here: Where a sequence is shown, tags or fusion partners need not be part of it.

Amino acid sequences for entries named in this document (tags omitted).
UniProt P25586: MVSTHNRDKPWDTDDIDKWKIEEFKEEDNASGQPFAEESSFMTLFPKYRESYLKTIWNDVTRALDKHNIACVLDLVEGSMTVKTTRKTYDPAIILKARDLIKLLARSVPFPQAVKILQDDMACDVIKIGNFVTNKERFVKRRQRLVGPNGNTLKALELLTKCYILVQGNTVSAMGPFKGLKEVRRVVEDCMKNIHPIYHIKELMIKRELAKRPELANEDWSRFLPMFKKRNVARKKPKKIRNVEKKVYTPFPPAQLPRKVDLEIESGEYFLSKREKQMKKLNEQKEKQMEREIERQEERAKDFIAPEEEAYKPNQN

Key:
[1] = target: Krr1 (wild type), second bait of the split-tag purification Utp23-Krr1 (S. cerevisiae) (UniProt P25586); assay: affinity purification with mass spectrometry
[2] = target: T1, protA-TEV-tagged Utp23 (S. cerevisiae) (UniProt Q12339); assay: affinity purification with mass spectrometry
T1 sequence: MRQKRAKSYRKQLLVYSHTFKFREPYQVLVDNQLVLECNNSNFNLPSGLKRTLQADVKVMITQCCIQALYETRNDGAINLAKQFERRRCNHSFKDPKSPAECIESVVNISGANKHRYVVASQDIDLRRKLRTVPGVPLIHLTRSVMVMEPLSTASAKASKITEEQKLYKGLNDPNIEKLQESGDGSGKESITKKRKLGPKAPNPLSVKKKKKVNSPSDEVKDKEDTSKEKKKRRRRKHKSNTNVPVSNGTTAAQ

B1: Nop9 (protein, UniProt P47077 1-666)
chain: MGKTKTRGRRHQDKQRKDEFEPSSNSAKEHIQQEESTYNDEAEIKETQPQMFFGVLDREELEYFKQAESTLQLDAFEAPEEKFQFVTSIIEEAKGKELKLVTSQITSKLMERVILECDETQLKDIFQSFNGVFFGLSCHKYASHVLETLFVRSAALVERELLTPSFDNNEKEGPYVTMENMFLFMLNELKPHLKTMMNHQYASHVLRLLILILSSKTLPNSTKANSTLRSKKSKIARKMIDIKDNDDFNKVYQTPESFKSELRDIITTLYKGFTNGAESRSDISQSTITKFREYSVDKVASPVIQLIIQVEGIFDRDRSFWRLVFNTADEKDPKEESFLEYLLSDPVGSHFLENVIGSARLKYVERLYRLYMKDRIVKLAKRDTTGAFVVRALLEHLKEKDVKQILDAVVPELSMLLNSNMDFGTAIINASNKQGGYLRDDVIAQLIQKYYPEKSDAKNILESCLLLSASTLGNTRDDWPTAEERRRSVFLEQLIDYDDKFLNITIDSMLALPEERLIQMCYHGVFSHVVEHVLQTTRVDIIKRKMLLNILSKESVNLACNVYGSHIMDKLWEFTAKLTLYKERIARALVLETEKVKNSIYGRQVWKNWKLELYVRKMWDWKKLIKEQEFEIFPNSKPLQPKPEKHSRERNNSKEGSAFKKQKHYR
How did the binding [1] turn out when B1 was run?
The binding was “binds”.

And the binding [2]?
The binding was “binds”.
